According to article PMC7819943, “Rice protein-binding microarrays: a tool to detect cis-acting elements near promoter regions in rice”:
The other results are listed elsewhere or left out.

The chains behind the UniProt entries cited, without tags or fusion partners.
UniProt Q0JBA9, entry or part of it: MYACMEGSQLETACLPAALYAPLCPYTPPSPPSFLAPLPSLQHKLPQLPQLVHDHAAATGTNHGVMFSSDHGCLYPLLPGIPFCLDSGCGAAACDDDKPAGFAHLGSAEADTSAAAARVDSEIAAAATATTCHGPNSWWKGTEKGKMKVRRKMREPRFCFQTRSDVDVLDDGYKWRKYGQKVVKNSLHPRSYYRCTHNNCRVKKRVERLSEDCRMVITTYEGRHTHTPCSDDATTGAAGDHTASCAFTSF

target: OsWRKY34 (Oryza sativa, UniProt Q0JBA9 1-250); test: protein-binding microarray (RPBM); PBS, 2% BSA, 51.3 ng/ul salmon testes DNA, 50 uM zinc acetate, 200 nM TF, 25 C, 1 h; high values mean tight binding; conditions: protein: recombinant; tags: N-terminal polyhistidine and DsRed monomer fusion (pET32a); label: CyDye5-dUTP incorporated in the synthesized complementary strand; 3' TTTTT single-stranded linker to array surface; dsDNA, one strand shown
Outline: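 The binding signal is fluorescence intensity per feature, in arbitrary units, read on an Axon 4000B scanner. Polyhistidine- and DsRed-tagged transcription factors (N-terminal fusions) from E. coli BL21-CodonPlus were purified on Ni–NTA and applied at 200 nM for 1 h at 25 °C to a double-stranded, BSA-blocked custom Agilent array in buffer with 50 µM zinc acetate.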

In order of rising binding signal:
1. AACCTTTTTAGCCAAATGCATGATCATATTGTTGTCCATTCGGAGTCACCTAGTGCAG  8100 fluorescence intensity (a.u.)
2. TTACCCACAATTTTAGGTTCTCATCTGCCACCACATATTTCGGAGTCACCTAGTGCAG  8130 fluorescence intensity (a.u.)
3. AAAGTGGACTTTTTCCTTGGGTTGACGCTGCATCGAGGCCCGGAGTCACCTAGTGCAG  8160 fluorescence intensity (a.u.)
4. CGCTCACTCGTCTCCTCTCGGTTTCTTTCTCTCTCTCTCTCGGAGTCACCTAGTGCAG  8160 fluorescence intensity (a.u.)
5. CACTCGTGACCTCAACCAAGCCCACCTTGCCTCACCATTGCGGAGTCACCTAGTGCAG  8200 fluorescence intensity (a.u.)
6. GCAGTGACACGTCGACGCGGCGCCCTCGTCTCGTGTGATCCGGAGTCACCTAGTGCAG  8260 fluorescence intensity (a.u.)
7. TTCCCAATAAAATTTTTGTACGTATACCATTGCTAAAGAACGGAGTCACCTAGTGCAG  8290 fluorescence intensity (a.u.)
8. AACATTATGCGTCCGCCTTTGGTCCGGTGTGACACTGTGACGGAGTCACCTAGTGCAG  8320 fluorescence intensity (a.u.)
9. CGTCATTCTTTCCTTCACGTCGCCACAGCCGTGACATCGTCGGAGTCACCTAGTGCAG  8370 fluorescence intensity (a.u.)
10. CGCCGCCTCGAACCGGACCAACCAACGACGGCTCGCTTCCCGGAGTCACCTAGTGCAG  8370 fluorescence intensity (a.u.)
11. TATCGCCGTCGTCTCGCACTGCCTCCATCGGATATCCAGCCGGAGTCACCTAGTGCAG  8390 fluorescence intensity (a.u.)
12. GTCCTTTTTCTTTTACGTAAACACGTAAGTTTCATACCACCGGAGTCACCTAGTGCAG  8480 fluorescence intensity (a.u.)
13. AGTTTTAAGTTGGACCACTCTTTATCTAATCATTTTAGTTCGGAGTCACCTAGTGCAG  8540 fluorescence intensity (a.u.)
14. AGCTTATCTTGTCGTGTGTTTATGCCTTGATGCAAGCTATCGGAGTCACCTAGTGCAG  8540 fluorescence intensity (a.u.)
15. AGTAGTCTCTGTAGTTTCCATATAGAACTCTACTTGTCCTCGGAGTCACCTAGTGCAG  8560 fluorescence intensity (a.u.)
16. GCTATTATCGAGTTGCATGCATCGACCAATTCAACCAAAACGGAGTCACCTAGTGCAG  8600 fluorescence intensity (a.u.)
17. CGCGGCGAGGTTGACCCCGCCATCGTCGCCACCGTCCTCGCGGAGTCACCTAGTGCAG  8700 fluorescence intensity (a.u.)
18. CGCGCTCGCGACGCTCCGCTCCCCGGTGCCCGGTCCCCATCGGAGTCACCTAGTGCAG  8790 fluorescence intensity (a.u.)
19. TGCTCCTAATTCGCCTGATCTGATCTCTGCCTTAGTTACTCGGAGTCACCTAGTGCAG  8800 fluorescence intensity (a.u.)
20. TGCTGACAAAGCCTGTTGAGATCCAGGTGGGTGGGAGGAGCGGAGTCACCTAGTGCAG  8900 fluorescence intensity (a.u.)
21. AAACTTCCAACTTTTCCGTCACATCGACACACATAAACTTCGGAGTCACCTAGTGCAG  8990 fluorescence intensity (a.u.)
22. GCGCGAGCTCCTCTCGAACTTCCTCAGCTTCGAGGTCTTCCGGAGTCACCTAGTGCAG  9210 fluorescence intensity (a.u.)
23. GGGCTTATCCGCTTTGCCAGTCGCGGGCTTGGCTTTTTTACGGAGTCACCTAGTGCAG  9480 fluorescence intensity (a.u.)
24. ATAATTAATGGGTAAAGTTTTTTTTATATTTTTGTTGTTTCGGAGTCACCTAGTGCAG  9510 fluorescence intensity (a.u.)
25. TTTTCCATTTAGGCTCTCGGTTTCACTGTACTCCAAATTACGGAGTCACCTAGTGCAG  9560 fluorescence intensity (a.u.)
26. GCCCAGATCCAAAAATACCCATTTTCCCATCCTTCACCGACGGAGTCACCTAGTGCAG  9560 fluorescence intensity (a.u.)
27. GTCACATACTCGCATTCTATTTACTCATGAATTAAACATTCGGAGTCACCTAGTGCAG  9580 fluorescence intensity (a.u.)
28. TCTAGGTCTTTTTTCTCATATATTCCCTTCATCCTTAAATCGGAGTCACCTAGTGCAG  9600 fluorescence intensity (a.u.)
29. ACAAATAGAGGGACCTAAAGTGAATTTATTCTTTCCGCATCGGAGTCACCTAGTGCAG  9640 fluorescence intensity (a.u.)
30. ACGACCCGCCCGCTGCCTCTCATTTTTATTATCATTGCGACGGAGTCACCTAGTGCAG  9650 fluorescence intensity (a.u.)
31. TCTCTTTTCTCTCTCGCGCACGACCGCGCGACGCGAAGGTCGGAGTCACCTAGTGCAG  9680 fluorescence intensity (a.u.)
32. GGCAGCATCAACCGTTACCCGCTTAAATCAACGGCCGAGACGGAGTCACCTAGTGCAG  9700 fluorescence intensity (a.u.)
33. TCGCCTTTCTGATCCACCGGTGACTCGGCCGGCCCGGTTGCGGAGTCACCTAGTGCAG  10100 fluorescence intensity (a.u.)
34. TACCTCCGCTTCACCTTCACCTGCGCGATTCCGGCGAGCCCGGAGTCACCTAGTGCAG  10100 fluorescence intensity (a.u.)
35. GTCAAACGCCACGAGCTTTGACCAGTCAACGGTCAAAGTTCGGAGTCACCTAGTGCAG  10600 fluorescence intensity (a.u.)
36. CTTCTTCTTCTTCTTCAGCTCGAGTTCTTCCTTAGCCATGCGGAGTCACCTAGTGCAG  10600 fluorescence intensity (a.u.)
37. GAGGACTCCCGTCGCCATCACGCCATCGCCGCTGCCTCCGCGGAGTCACCTAGTGCAG  10900 fluorescence intensity (a.u.)
38. TTGCGTCTTCCGCTTCCGACCGCGACCCACTCCCACCATTCGGAGTCACCTAGTGCAG  11000 fluorescence intensity (a.u.)
39. GATCGTGGAATTAATTCCACCTTAGTTGTTATGGGCGGGTCGGAGTCACCTAGTGCAG  11400 fluorescence intensity (a.u.)
40. TTCGTTTCTGGCTTTTTCGTCGTGTTCCGATTTCAATCTCCGGAGTCACCTAGTGCAG  12700 fluorescence intensity (a.u.)
41. ATCTCGTTTCGTCCTCGCCCGCCGCCTCCGCTTCCCATTCCGGAGTCACCTAGTGCAG  15700 fluorescence intensity (a.u.)
42. ATCACTGGTTTCTTTCTGGTCCAACCCCACACGGCCATTCCGGAGTCACCTAGTGCAG  15800 fluorescence intensity (a.u.)
